Some of the results follow.
Tests used:
Test in all cases: log2 fold change, soluble protein after heating vs DMSO (PISA); higher = thermal stabilisation; K562 cells, 10 uM, 30 min; active = over 0.2 and 3.5 SD of the protein, either way, in both replicates (recomputed)
[1] = compound: CC1=C(C=C(C=C1)NC(=O)C2=CC(=CC=C2)C(C)(C)C#N)NC3=CC4=C(C=C3)N=CN(C4=O)C
Summary of the method: (§1)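 Soluble protein was defined as the supernatant after 21,000xg for 90 min. It came from K562 cells at 2×10^6 cells/mL given 10 μM compound for 30 min, heated in aliquots for 3 min across 48°C-58°C, pooled, and extracted in PBS with 0.5% NP-40 at 4°C, and was quantified by TMTpro 16plex LC-MS/MS with equalised channel sums. Thermal stability against control samples, from duplicates, is reported as log2 fold change.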

The chains behind the UniProt entries cited, without tags or fusion partners. Where a name states a change or a piece, a line headed by the entry shows the natural chain unless it says otherwise.
UniProt O95562: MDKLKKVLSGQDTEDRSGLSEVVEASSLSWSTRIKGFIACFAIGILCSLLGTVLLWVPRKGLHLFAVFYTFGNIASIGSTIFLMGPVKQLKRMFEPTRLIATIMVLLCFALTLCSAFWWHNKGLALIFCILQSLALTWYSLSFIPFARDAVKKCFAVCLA
UniProt Q96BD8: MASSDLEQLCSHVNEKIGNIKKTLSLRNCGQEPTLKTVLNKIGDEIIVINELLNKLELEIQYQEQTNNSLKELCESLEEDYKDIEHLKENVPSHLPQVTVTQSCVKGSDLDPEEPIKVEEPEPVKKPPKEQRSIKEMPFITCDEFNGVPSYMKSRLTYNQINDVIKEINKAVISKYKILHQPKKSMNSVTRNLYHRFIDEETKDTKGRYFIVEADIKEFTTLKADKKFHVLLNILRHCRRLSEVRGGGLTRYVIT
UniProt Q15464: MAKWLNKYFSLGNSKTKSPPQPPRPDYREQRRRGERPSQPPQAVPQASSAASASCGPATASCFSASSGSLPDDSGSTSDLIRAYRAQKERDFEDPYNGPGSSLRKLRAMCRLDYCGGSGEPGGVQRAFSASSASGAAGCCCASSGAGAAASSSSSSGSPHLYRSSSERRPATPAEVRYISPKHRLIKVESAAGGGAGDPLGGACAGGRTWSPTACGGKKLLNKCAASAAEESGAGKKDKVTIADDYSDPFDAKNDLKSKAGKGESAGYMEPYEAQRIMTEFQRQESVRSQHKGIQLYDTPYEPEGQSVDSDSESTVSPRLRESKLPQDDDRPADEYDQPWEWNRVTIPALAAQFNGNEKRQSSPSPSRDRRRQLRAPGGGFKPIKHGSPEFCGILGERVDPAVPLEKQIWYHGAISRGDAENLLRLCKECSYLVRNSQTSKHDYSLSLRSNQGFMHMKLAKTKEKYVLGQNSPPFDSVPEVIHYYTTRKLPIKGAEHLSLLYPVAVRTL
UniProt Q99963: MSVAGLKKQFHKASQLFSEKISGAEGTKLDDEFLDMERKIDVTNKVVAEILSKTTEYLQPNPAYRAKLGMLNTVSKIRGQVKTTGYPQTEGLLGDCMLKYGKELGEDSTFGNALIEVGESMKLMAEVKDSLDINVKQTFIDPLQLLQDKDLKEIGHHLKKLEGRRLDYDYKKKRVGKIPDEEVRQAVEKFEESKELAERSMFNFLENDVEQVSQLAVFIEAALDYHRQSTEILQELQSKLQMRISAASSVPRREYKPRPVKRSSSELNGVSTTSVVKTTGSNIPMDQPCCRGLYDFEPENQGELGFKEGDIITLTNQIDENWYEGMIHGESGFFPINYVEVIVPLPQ
UniProt Q6P4A7: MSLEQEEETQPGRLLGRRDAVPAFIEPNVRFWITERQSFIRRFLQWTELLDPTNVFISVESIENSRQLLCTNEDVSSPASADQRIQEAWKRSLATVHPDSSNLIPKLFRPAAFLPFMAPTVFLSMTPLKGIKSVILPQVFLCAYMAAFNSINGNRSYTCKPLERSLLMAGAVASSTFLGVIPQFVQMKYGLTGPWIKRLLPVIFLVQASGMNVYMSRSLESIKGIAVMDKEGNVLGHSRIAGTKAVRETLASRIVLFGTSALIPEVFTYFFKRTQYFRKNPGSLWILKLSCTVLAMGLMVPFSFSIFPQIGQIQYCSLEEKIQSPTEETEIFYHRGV
UniProt Q86XK3: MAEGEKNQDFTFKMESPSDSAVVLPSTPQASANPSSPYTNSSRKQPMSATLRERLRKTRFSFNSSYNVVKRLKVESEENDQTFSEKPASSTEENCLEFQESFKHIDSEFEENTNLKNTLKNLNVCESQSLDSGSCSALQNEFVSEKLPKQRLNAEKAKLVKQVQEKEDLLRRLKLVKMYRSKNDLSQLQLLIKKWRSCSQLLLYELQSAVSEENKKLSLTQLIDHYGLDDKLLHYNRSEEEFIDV
UniProt Q8IUQ4: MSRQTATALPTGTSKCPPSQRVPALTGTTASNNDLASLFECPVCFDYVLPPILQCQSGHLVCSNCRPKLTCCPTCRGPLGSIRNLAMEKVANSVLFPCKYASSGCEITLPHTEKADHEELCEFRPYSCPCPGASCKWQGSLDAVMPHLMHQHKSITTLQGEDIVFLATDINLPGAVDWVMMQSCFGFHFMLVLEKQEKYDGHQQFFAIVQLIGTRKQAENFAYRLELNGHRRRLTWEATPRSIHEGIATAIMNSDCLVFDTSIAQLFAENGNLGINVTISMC
UniProt P60059: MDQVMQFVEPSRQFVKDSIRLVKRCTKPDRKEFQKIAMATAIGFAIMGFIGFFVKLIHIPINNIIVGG
UniProt Q8NC51: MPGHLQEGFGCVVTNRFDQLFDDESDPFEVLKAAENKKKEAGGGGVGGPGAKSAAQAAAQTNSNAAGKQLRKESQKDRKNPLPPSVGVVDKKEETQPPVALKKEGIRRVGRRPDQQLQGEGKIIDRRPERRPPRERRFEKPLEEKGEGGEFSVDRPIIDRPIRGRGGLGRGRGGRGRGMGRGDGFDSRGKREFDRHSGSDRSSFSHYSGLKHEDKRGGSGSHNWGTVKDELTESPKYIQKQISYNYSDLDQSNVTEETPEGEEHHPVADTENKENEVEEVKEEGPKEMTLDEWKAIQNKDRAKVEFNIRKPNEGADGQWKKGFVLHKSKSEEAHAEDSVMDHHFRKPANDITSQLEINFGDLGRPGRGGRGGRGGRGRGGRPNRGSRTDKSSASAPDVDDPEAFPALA
UniProt P84101: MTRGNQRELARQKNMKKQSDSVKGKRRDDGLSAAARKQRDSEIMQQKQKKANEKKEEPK
UniProt Q13796: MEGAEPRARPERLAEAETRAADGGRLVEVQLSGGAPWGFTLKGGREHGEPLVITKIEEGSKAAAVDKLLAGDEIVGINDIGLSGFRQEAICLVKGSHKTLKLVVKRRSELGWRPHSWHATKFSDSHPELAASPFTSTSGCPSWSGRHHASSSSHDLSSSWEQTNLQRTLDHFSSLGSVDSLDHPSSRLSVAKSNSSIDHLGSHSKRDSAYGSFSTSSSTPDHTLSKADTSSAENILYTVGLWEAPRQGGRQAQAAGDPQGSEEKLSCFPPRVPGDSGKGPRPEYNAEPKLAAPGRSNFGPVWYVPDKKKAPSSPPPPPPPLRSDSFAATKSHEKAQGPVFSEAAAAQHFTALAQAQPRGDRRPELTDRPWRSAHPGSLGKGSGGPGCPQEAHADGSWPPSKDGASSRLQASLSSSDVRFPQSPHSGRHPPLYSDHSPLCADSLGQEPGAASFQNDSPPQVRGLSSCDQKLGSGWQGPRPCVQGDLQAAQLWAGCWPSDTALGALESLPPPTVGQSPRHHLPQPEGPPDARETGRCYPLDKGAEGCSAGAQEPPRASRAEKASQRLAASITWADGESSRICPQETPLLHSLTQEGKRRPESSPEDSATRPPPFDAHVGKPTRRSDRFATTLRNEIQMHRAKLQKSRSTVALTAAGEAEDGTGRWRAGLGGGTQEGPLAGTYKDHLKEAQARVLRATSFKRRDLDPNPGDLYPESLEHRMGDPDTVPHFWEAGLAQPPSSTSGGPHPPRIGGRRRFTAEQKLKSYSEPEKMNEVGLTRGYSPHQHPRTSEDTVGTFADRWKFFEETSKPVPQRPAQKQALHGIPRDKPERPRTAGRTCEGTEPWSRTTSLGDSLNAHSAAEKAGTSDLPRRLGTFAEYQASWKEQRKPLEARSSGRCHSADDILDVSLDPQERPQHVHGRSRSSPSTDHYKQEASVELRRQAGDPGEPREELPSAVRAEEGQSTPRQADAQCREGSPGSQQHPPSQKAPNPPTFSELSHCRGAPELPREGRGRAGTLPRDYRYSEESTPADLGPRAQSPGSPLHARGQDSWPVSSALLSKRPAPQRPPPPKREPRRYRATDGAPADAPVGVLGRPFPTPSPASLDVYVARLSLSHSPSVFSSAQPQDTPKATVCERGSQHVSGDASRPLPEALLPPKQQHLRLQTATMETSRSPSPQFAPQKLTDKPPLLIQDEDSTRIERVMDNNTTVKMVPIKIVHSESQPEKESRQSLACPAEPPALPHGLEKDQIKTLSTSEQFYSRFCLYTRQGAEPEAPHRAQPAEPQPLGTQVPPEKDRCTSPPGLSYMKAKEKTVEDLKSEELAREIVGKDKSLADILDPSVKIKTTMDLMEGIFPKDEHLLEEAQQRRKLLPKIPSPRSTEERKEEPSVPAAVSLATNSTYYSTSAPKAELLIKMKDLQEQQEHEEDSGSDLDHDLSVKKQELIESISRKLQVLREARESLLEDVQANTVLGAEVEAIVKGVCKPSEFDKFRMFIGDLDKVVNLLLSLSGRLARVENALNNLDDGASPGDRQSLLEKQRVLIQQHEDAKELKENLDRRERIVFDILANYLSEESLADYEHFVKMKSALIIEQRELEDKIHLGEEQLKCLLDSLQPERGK
UniProt Q6PI26: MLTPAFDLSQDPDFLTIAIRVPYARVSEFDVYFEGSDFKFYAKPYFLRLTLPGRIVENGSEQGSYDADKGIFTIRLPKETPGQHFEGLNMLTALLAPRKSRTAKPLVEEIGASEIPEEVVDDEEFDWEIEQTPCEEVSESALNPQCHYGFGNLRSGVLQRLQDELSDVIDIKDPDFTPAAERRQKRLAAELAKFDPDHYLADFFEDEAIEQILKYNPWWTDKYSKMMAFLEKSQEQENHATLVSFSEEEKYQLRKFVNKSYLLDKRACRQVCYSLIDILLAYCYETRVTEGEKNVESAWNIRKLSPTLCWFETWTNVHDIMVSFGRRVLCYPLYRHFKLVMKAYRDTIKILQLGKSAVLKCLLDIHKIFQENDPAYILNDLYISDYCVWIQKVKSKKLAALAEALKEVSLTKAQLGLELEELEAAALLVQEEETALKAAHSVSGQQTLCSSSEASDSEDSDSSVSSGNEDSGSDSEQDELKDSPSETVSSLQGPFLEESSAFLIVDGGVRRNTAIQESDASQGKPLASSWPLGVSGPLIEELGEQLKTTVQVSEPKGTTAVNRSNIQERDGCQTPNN

[2] = compound: CC1=C(C=C(C=C1)NC(=O)C2=CC(=CC=C2)N(C)C)NC(=O)C3=CC=C(C=C3)O
Summary of the method: as §1

[3] = compound: CC1=CC=C(C=C1)SC2=C3C=C(SC3=CN=C2)C(=O)N
Summary of the method: as §1

Nexturastat A = compound: CCCCN(Cc1ccc(C(=O)NO)cc1)C(=O)Nc1ccccc1 [Nexturastat A]
Summary of the method: as §1

vemurafenib = compound: CCCS(=O)(=O)Nc1ccc(F)c(C(=O)c2c[nH]c3ncc(-c4ccc(Cl)cc4)cc23)c1F [vemurafenib]
Summary of the method: as §1

[4] = compound: CCCS(=O)(=O)Nc1ccc(F)c(C(=O)c2c[nH]c3ncc(Cl)cc23)c1F
Summary of the method: as §1

[5] = compound: CCCc1cc(C)[nH]c(=O)c1CNC(=O)c1cc(-c2ccnc(N3CCN(C)CC3)c2)cc2c1cnn2C(C)C
Summary of the method: as §1

givinostat = compound: CCN(CC)Cc1ccc2cc(COC(=O)Nc3ccc(C(=O)NO)cc3)ccc2c1 [givinostat]
Summary of the method: as §1

barasertib = compound: CCN(CCCOc1ccc2c(Nc3cc(CC(=O)Nc4cccc(F)c4)[nH]n3)ncnc2c1)CCOP(=O)(O)O [barasertib]
Summary of the method: as §1

[6] = compound: CC[C@@H]1C(=O)N(C)c2cnc(Nc3ccc(C(=O)NC4CCN(C)CC4)cc3OC)nc2N1C1CCCC1
Summary of the method: as §1

volasertib = compound: CC[C@@H]1C(=O)N(C)c2cnc(Nc3ccc(C(=O)N[C@H]4CC[C@H](N5CCN(CC6CC6)CC5)CC4)cc3OC)nc2N1C(C)C [volasertib]
Summary of the method: as §1

[7] = compound: CC[C@H](C)N1C=C(C2=C(C=C(C=C21)C3=CN=C(C=C3)N4CCNCC4)C(=O)NCC5=C(C=C(NC5=O)C)C)C
Summary of the method: as §1

epoxomicin = compound: CC[C@H](C)[C@@H](C(=O)N[C@@H]([C@@H](C)O)C(=O)N[C@@H](CC(C)C)C(=O)[C@]1(CO1)C)NC(=O)[C@H]([C@@H](C)CC)N(C)C(=O)C [epoxomicin]
Summary of the method: as §1

[8] = compound: CCn1c(C(=O)N(C2CC2)C2CC2)cc2c3c(ncn3C)c(Nc3cc(C)n(C)n3)nc21
Summary of the method: as §1

[9] = compound: CCn1cc(-c2ccnc3[nH]c(-c4cccc(CN(C)C)c4)cc23)c(-c2ccc(NC(=O)N(C)C)cc2)n1
Summary of the method: as §1

[10] = compound: CN(C)CC(=O)Nc1ccc2[nH]c(=O)c3ccccc3c2c1
Summary of the method: as §1

rosiglitazone = compound: CN(CCOC1=CC=C(C=C1)C[C@H]2C(=O)NC(=O)S2)C3=CC=CC=N3 (racemic) [rosiglitazone]
Summary of the method: as §1

[11] = compound: CN1C2=C(C3=C1C(=O)N(N=C3)CC4=CC(=CC=C4)N)SC(=C2)S(=O)C
Summary of the method: as §1

[12] = compound: CN1CCC(CNc2ccc3ncc(-c4cccc(OC(F)(F)F)c4)n3n2)CC1
Summary of the method: as §1

[13] = compound: CC1=NC(=CC=C1)C2=C(N=C(N2)C(C)(C)C)C3=CC4=NC=CN=C4C=C3
Summary of the method: as §1

Target	log2 fold change [1]	log2 fold change [2]	log2 fold change [3]	log2 fold change (Nexturastat A)	log2 fold change (vemurafenib)	log2 fold change [4]	log2 fold change [5]	log2 fold change (givinostat)	log2 fold change (barasertib)	log2 fold change [6]	log2 fold change (volasertib)	log2 fold change [7]	log2 fold change (epoxomicin)	log2 fold change [8]	log2 fold change [9]	log2 fold change [10]	log2 fold change (rosiglitazone)	log2 fold change [11]	log2 fold change [12]	log2 fold change [13]
SFT2D2 (UniProt O95562)	inactive: -0.073	inactive: -0.063	inactive: 0.007	inactive: -0.161	inactive: -0.1	inactive: 0.083	inactive: -0.065	inactive: -0.058	inactive: 0.002	inactive: -0.09	inactive: 0.086	inactive: -0.127	inactive: -0.017	inactive: 0.004	inactive: -0.013	inactive: 0.002	inactive: -0.043	inactive: -0.089	inactive: 0.113	
SKA1 (UniProt Q96BD8)	inactive: 0.001	inactive: 0.094	inactive: -0.045	inactive: 0.327	inactive: 0.075	inactive: -0.061	inactive: 0.133			inactive: 0.054	inactive: -0.036	inactive: -0.006	inactive: -0.173		inactive: 0.012	inactive: -0.005		inactive: 0.324	inactive: 0.128	inactive: -0.068
SF1 (UniProt H7C0N4)		inactive: -0.05	inactive: -0.059		inactive: 0.016	inactive: 0.052	inactive: -0.017		inactive: -0.064	inactive: 0.087	inactive: 0.249	inactive: 0.065				inactive: -0.03	inactive: -0.048	inactive: -0.071		inactive: 0.103
SHB (UniProt Q15464)	inactive: -0.058		inactive: 0.104			inactive: -0.053	inactive: 0.096		inactive: 0.029		inactive: 0.174				inactive: -0.202		inactive: -0.057	inactive: -0.002	inactive: 0.108	
SH3GL3 isoform 3 (UniProt Q99963)	inactive: -0.155	inactive: -0.004	inactive: -0.008		inactive: 0.074	inactive: -0.016	inactive: -0.297			inactive: -0.063	inactive: -0.009					inactive: 0.046				
SFXN4 isoform 3 (UniProt Q6P4A7)	inactive: 0.244		inactive: 0.079		inactive: 0.17	inactive: 0.179		inactive: 0.048	inactive: -0.037	inactive: 0.15	inactive: -0.317			inactive: -0.211	inactive: -0.039	inactive: -0.031	inactive: 0.035	inactive: 0.115	inactive: 0.067	
SFR1 isoform 2 (UniProt Q86XK3)	inactive: 0.031	inactive: 0.017		inactive: 0.175	inactive: 0.252		inactive: -0.07		inactive: -0.026				inactive: 0.181			inactive: 0.074	inactive: -0.02			
SIAH1 isoform 2 (UniProt Q8IUQ4)	inactive: 0.048		inactive: 0.031	inactive: -0.318	inactive: 0.032	inactive: 0.043		inactive: -0.17	inactive: -0.085	inactive: 0.073	inactive: 0.142		inactive: 0.306	inactive: 0.158	inactive: -0.063	inactive: 0.028	inactive: 0.379	inactive: 0.07	inactive: 0.073	inactive: -0.054
SEC61G (UniProt P60059)	inactive: 0.099	inactive: 0.106		inactive: -0.137			inactive: -0.298	inactive: -0.016	inactive: -0.091	inactive: 0.2		inactive: -0.154	inactive: 0.115	inactive: 0.002			inactive: 0.001	inactive: 0.052		inactive: 0.058
SERBP1 isoform 3 (UniProt Q8NC51)		inactive: 0.039	inactive: -0.108	inactive: 0.171		inactive: -0.05	inactive: 0.023	inactive: -0.224	inactive: -0.023	inactive: 0.159	inactive: -0.006	inactive: -0.007	inactive: -0.089	inactive: -0.058	inactive: 0.076		inactive: -0.104	inactive: 0.137	inactive: 0.052	
SERF2 (UniProt P84101)	inactive: -0.032	inactive: -0.005		inactive: 0.066	inactive: -0.156		inactive: -0.027	inactive: -0.012	inactive: -0.02	inactive: -0.056		inactive: -0.079	inactive: 0.12	inactive: -0.017	inactive: 0.075	inactive: 0.017	inactive: -0.065	inactive: -0.076	inactive: -0.13	
SHROOM2 (UniProt Q13796)	inactive: -0.104		inactive: 0.011	active: 0.763	inactive: -0.078	inactive: -0.179	inactive: -0.207	inactive: 0.238	inactive: 0.071	inactive: 0.027	inactive: 0.068	inactive: -0.243	inactive: -0.136		inactive: -0.072	inactive: -0.021		inactive: -0.103	inactive: -0.094	inactive: -0.206
SH2B1 (UniProt Q9NRF2)					inactive: -0.023											inactive: -0.009				
SHQ1 (UniProt Q6PI26)					inactive: 0.096											inactive: 0.061		inactive: 0.106		

— the supplement of paper PMC10849652
